# For at least one compound, name, drawing or mass did not settle the structure.
# What was measured:
# Type in all cases: physicochemical
# [1] = Accelerated chemical stability in 5% phosphoric acid matrix stored at 40° C. (UHPLC-UV); conditions: SCs from yerba mate, 5% phosphoric acid matrix (pH<<1)
# [2] = Reb M stability in 5% phosphoric acid at 40° C. with Rosmarinic Acid or Cichoric Acid as SC (UHPLC-UV); conditions: 5% phosphoric acid matrix (pH<<1)
# [3] = Chemical stability of 500 ppm Reb M in pH 1.7 buffer at room temperature (UHPLC-UV)
SMILES,"% Reb M Recovery ([1]; day 0, pure Reb M (>99%))","% Reb M Recovery ([1]; day 1, pure Reb M (>99%))","% Reb M Recovery ([1]; day 2, pure Reb M (>99%))","% Reb M Recovery ([1]; day 3, pure Reb M (>99%))","% Reb M Recovery ([1]; day 7, pure Reb M (>99%))","% Reb M Recovery ([2]; day 0, SC = Cichoric Acid)","% Reb M Recovery ([2]; day 0, SC = Rosmarinic Acid)","% Reb M Recovery ([2]; day 1, SC = Cichoric Acid)","% Reb M Recovery ([2]; day 1, SC = Rosmarinic Acid)","% Reb M Recovery ([2]; day 2, SC = Cichoric Acid)","% Reb M Recovery ([2]; day 2, SC = Rosmarinic Acid)","% Reb M Recovery ([2]; day 3, SC = Cichoric Acid)","% Reb M Recovery ([2]; day 3, SC = Rosmarinic Acid)","% Reb M Recovery ([2]; day 7, SC = Cichoric Acid)","% Reb M Recovery ([2]; day 7, SC = Rosmarinic Acid)","% Reb M Recovery ([3]; day 0, RT)","% Reb M Recovery ([3]; day 7, RT)","% Reb M Recovery ([3]; day 14, RT)","% Reb M Recovery ([3]; day 24, RT)","% Reb M Recovery ([3]; day 35, RT)"
"C=C1C[C@@]23CC[C@H]4[C@@](C)(CCC[C@@]4(C)C(=O)O[C@@H]4O[C@H](CO)[C@@H](O)[C@H](O[C@@H]5O[C@H](CO)[C@@H](O)[C@H](O)[C@H]5O)[C@H]4O[C@@H]4O[C@H](CO)[C@@H](O)[C@H](O)[C@H]4O)[C@@H]2CC[C@]1(O[C@@H]1O[C@H](CO)[C@@H](O)[C@H](O[C@@H]2O[C@H](CO)[C@@H](O)[C@H](O)[C@H]2O)[C@H]1O[C@@H]1O[C@H](CO)[C@@H](O)[C@H](O)[C@H]1O)C3 [0.1% Reb M No SCs, Rebaudioside M]",100.0%,55.1%,31.5%,19.9%,5.07%,98%,98%,56%,56%,33%,33%,20%,20%,6%,6%,–,–,–,–,–
"C=C1C[C@@]23CC[C@H]4[C@@](C)(CCC[C@@]4(C)C(=O)O[C@@H]4O[C@H](CO)[C@@H](O)[C@H](O[C@@H]5O[C@H](CO)[C@@H](O)[C@H](O)[C@H]5O)[C@H]4O[C@@H]4O[C@H](CO)[C@@H](O)[C@H](O)[C@H]4O)[C@@H]2CC[C@]1(O[C@@H]1O[C@H](CO)[C@@H](O)[C@H](O[C@@H]2O[C@H](CO)[C@@H](O)[C@H](O)[C@H]2O)[C@H]1O[C@@H]1O[C@H](CO)[C@@H](O)[C@H](O)[C@H]1O)C3 [Reb M pH 1.7, Rebaudioside M]",–,–,–,–,–,–,–,–,–,–,–,–,–,–,–,100.0%,93.4%,87.7%,80.2%,73.0%

# — patent publication US20240082334A1, “STABILIZED STEVIOL GLYCOSIDE COMPOSITIONS AND USES THEREOF” (CARGILL, INCORPORATED, priority 2017, published 2024)
